Source: PMC10566187

Biological target: T1, meiotic nuclear divisions 1 (MND1), Flag-tagged (UniProt Q9BWT6)
T1 sequence: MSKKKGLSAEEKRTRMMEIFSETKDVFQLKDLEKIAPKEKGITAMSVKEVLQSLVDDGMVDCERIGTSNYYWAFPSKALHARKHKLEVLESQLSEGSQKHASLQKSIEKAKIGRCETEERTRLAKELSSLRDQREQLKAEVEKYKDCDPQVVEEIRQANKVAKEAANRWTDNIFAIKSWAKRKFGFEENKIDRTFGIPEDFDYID
Assay: affinity purification with mass spectrometry; HGC27 cells transfected with the Flag-MND1 vector, lysed with a CO-IP kit (Absin); input, IP and IgG groups; LC-MS/MS of the precipitate

B1: transketolase (TKT) (protein, UniProt P29401 1-623)
chain: MESYHKPDQQKLQALKDTANRLRISSIQATTAAGSGHPTSCCSAAEIMAVLFFHTMRYKSQDPRNPHNDRFVLSKGHAAPILYAVWAEAGFLAEAELLNLRKISSDLDGHPVPKQAFTDVATGSLGQGLGAACGMAYTGKYFDKASYRVYCLLGDGELSEGSVWEAMAFASIYKLDNLVAILDINRLGQSDPAPLQHQMDIYQKRCEAFGWHAIIVDGHSVEELCKAFGQAKHQPTAIIAKTFKGRGITGVEDKESWHGKPLPKNMAEQIIQEIYSQIQSKKKILATPPQEDAPSVDIANIRMPSLPSYKVGDKIATRKAYGQALAKLGHASDRIIALDGDTKNSTFSEIFKKEHPDRFIECYIAEQNMVSIAVGCATRNRTVPFCSTFAAFFTRAFDQIRMAAISESNINLCGSHCGVSIGEDGPSQMALEDLAMFRSVPTSTVFYPSDGVATEKAVELAANTKGICFIRTSRPENAIIYNNNEDFQVGQAKVVLKSKDDQVTVIGAGVTLHEALAAAELLKKEKINIRVLDPFTIKPLDRKLILDSARATKGRILTVEDHYYEGGIGEAVSSAVVGEPGITVTHLAVNRVPRSGKPAELLKMFGIDRDAIAQAVRGLITKA
For B1, the binding was “binds”.

Results are given in words; binding and its absence hold for the method and conditions named. In cells and extracts the contact can be indirect. Here binding means that the protein was enriched with, or labelled near, the bait; the list need not be complete. Sequences can lack the tags named with a protein.
